Results reported in patent US20060008857A1.
No constants are given. Whether binding was seen depends on the method and setting. In cells and extracts the contact can be indirect. Some results given as binding are weak or reduced against the parent protein; the word gives no strength. Where a sequence is shown, tags or fusion partners need not be part of it.

Chains of the proteins cited; added tags and fusions are not shown. Residues count along the entry.
UniProt P49840, residues 2-483: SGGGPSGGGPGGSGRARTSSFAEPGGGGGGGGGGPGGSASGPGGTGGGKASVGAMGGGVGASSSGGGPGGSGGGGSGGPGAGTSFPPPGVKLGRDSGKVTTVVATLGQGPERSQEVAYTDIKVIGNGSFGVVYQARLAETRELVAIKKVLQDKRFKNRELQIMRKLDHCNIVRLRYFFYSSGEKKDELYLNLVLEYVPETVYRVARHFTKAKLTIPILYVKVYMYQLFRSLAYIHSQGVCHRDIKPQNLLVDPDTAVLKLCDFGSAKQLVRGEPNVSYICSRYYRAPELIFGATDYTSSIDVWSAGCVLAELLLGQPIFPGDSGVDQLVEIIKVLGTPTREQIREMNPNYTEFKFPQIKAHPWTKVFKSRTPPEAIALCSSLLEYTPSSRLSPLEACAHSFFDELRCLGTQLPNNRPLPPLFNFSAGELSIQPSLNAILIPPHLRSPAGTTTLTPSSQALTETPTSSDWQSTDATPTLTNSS

What was measured:
[1] = molecular target: human GSK3α with a FLAG tag at the N-terminal side (human) (UniProt P49840); assay: co-immunoprecipitation from COS-1 cells with anti-FLAG antibody, anti-V5 Western blot
[2] = molecular target: human GSK3α with a FLAG tag at the N-terminal side (human) (UniProt P49840); assay: examination of interactions of glucose metabolism-related proteins with CAPBP1 (co-immunoprecipitation)

binding [1]: binds | binding [2]: binds
B1: CAPBP1-V3-His6 fusion protein (CAPBP1 with C-terminal V5 epitope and His6 tag), from pcDNA-CAPBP1 (-) (protein, not shown: small tags and cut ends)
chain: MRRSRSSAAAKLRGQKRSGASAAPAASAAAALAPSATRTRRSASQAGSKSQAVEKPPSEKPRLRRSSPRAQEEGPGEPPPPELALLPPPPPPPPTPATPTSSASNLDLGEQRERWETFQKRQKLTSEGAAKLLLDTFEYQGLVKHTGGCHCGAVRFEVWASADLHIFDCKYRNYI
